Reference: article PMC5078065
Results are given in words; binding and its absence hold for the method and conditions named. In cells and extracts the contact can be indirect. Here binding means that the protein was enriched with, or labelled near, the bait; the list need not be complete.

The chains behind the UniProt entries cited, without tags or fusion partners.
UniProt P07355: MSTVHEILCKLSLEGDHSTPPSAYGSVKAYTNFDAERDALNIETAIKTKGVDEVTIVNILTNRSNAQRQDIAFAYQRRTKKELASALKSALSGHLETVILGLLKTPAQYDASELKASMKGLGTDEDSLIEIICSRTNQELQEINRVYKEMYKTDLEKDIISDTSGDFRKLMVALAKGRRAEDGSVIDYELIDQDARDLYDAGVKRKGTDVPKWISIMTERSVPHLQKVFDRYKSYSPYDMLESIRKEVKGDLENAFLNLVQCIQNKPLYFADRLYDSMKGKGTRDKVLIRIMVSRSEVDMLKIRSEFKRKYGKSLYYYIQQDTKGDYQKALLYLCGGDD
UniProt P06733: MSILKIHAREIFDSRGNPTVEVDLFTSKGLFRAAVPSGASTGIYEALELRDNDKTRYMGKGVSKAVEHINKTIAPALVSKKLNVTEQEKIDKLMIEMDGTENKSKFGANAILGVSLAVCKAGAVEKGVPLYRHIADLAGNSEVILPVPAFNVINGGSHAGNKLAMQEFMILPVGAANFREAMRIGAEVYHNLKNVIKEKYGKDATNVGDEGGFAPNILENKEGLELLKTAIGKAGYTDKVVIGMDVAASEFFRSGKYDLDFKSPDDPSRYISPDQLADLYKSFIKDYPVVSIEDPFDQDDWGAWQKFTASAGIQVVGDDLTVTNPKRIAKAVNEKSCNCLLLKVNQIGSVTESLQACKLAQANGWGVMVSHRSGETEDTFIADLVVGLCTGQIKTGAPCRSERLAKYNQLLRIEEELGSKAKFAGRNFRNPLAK
UniProt P20700: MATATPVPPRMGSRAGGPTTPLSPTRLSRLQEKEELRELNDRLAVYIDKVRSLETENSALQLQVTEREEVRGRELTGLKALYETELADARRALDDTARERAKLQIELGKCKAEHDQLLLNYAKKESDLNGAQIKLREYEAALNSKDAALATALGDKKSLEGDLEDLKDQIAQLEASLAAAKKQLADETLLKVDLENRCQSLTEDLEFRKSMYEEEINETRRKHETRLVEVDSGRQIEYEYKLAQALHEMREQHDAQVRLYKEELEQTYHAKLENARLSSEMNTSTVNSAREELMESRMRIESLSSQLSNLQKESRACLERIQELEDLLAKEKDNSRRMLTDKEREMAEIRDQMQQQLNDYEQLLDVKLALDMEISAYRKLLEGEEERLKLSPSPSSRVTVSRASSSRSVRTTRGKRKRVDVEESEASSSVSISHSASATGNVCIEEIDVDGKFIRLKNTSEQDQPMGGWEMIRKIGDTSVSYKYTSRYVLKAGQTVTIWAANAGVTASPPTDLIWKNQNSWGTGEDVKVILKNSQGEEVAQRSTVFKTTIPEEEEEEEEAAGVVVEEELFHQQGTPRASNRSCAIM
UniProt P06748: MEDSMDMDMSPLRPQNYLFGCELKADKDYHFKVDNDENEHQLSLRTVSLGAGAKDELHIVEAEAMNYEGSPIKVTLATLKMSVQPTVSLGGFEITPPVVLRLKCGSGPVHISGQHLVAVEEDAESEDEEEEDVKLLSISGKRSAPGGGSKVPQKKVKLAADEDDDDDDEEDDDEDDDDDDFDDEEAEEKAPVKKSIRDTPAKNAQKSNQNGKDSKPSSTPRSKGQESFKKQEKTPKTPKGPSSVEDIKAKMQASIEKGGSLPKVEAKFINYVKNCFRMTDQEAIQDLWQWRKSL
UniProt P08670: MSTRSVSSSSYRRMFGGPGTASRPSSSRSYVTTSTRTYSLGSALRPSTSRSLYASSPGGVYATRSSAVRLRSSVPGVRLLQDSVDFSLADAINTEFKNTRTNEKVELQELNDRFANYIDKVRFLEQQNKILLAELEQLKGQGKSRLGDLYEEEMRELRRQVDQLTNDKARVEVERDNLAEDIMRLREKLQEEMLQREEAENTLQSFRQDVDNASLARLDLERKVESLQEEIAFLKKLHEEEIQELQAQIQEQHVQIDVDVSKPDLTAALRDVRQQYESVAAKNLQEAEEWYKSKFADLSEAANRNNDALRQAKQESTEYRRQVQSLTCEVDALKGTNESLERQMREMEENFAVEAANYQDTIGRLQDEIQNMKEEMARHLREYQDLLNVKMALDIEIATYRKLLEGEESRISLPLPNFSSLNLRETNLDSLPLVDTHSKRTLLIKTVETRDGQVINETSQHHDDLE

Target: T1, ubiquitin associated protein 2 (human) (UniProt Q5T6F2)
T1 sequence: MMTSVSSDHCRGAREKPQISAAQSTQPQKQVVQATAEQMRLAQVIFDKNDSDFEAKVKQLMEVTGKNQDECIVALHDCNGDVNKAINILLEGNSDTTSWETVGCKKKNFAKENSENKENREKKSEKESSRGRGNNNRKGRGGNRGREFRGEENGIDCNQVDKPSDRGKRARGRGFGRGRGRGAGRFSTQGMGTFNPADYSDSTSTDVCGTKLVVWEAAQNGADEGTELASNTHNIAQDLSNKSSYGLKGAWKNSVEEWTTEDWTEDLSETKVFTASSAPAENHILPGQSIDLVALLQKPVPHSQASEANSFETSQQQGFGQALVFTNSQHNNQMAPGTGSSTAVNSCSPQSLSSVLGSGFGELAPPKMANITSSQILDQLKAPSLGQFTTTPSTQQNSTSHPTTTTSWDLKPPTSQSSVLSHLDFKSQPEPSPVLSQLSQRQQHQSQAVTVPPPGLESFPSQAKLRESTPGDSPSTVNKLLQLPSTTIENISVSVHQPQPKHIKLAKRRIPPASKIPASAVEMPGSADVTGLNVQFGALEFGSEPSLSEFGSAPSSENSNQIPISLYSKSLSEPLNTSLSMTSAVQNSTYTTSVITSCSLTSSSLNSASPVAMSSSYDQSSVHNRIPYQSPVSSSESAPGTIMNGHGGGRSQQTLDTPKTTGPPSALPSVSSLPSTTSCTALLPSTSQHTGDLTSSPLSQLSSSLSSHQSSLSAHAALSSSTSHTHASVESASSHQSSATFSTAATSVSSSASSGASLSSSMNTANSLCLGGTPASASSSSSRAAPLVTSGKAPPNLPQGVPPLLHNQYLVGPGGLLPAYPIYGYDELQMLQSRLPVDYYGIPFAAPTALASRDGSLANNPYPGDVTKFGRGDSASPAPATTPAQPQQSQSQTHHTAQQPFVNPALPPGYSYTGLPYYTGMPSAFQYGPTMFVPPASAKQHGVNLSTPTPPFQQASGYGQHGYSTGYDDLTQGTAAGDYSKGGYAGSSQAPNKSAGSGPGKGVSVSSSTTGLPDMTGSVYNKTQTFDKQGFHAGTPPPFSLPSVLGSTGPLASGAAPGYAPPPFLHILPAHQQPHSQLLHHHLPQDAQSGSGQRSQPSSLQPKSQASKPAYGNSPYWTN
Assay: affinity purification with mass spectrometry; co-IP of UBAP2 combined with 2D-LC-MS/MS in Hep3B and 293T cells; proteins found in both cell lines

Substance	binding
Annexin A2 (from UniProt P07355 1-339)	binds
alpha-enolase (from UniProt P06733 1-434)	binds
lamin B1 (from UniProt P20700 1-586)	binds
nucleolar phosphoprotein B23 (from UniProt P06748 1-294)	binds
vimentin (from UniProt P08670 1-466)	binds
